No constants are given. Whether binding was seen depends on the method and setting. In cells and extracts the contact can be indirect. A result given as binding can be weak or reduced; the word gives no strength.
Biological target: T1, Endogenous JIP3 in cerebellar granule neurons (rat) (UniProt E9PSK7)
T1 sequence (phosphorylated (sites not given), looked up): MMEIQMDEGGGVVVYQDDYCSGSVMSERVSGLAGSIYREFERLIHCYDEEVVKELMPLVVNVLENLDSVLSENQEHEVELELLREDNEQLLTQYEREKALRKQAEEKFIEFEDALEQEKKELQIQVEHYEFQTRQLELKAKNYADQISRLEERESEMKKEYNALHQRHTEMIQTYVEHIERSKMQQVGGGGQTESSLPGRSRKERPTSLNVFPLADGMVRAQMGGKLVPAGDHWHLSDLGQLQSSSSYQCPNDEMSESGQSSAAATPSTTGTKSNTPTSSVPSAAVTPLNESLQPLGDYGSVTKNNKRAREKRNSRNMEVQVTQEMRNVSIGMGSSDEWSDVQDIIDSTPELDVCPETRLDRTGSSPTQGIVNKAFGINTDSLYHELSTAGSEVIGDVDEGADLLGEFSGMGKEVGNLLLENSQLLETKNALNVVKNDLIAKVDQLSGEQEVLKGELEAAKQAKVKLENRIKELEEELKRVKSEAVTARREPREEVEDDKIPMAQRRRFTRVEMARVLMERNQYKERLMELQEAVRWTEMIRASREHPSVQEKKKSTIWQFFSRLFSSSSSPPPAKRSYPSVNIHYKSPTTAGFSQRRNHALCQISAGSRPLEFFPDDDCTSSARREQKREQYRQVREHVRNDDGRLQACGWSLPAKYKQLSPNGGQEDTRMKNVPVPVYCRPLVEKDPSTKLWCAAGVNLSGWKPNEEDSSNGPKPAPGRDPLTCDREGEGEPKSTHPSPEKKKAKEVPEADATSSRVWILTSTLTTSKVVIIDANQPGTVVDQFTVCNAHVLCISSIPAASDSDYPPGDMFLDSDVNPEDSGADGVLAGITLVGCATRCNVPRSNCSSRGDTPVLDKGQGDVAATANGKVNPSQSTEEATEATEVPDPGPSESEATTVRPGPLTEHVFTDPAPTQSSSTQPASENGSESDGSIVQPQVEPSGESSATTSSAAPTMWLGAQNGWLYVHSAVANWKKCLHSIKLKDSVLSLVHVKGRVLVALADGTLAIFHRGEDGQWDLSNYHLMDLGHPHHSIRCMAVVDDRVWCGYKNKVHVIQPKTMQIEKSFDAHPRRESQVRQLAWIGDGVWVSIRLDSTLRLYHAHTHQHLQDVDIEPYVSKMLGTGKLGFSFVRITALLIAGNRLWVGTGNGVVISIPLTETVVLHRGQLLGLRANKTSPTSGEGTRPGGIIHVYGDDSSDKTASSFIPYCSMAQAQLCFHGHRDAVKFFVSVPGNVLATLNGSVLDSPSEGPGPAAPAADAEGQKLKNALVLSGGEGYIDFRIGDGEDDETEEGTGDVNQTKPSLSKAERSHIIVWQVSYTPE
Test: co-immunoprecipitation with a JIP3 antibody from granule neuron lysates, Pin1 immunoblot; interaction decreased after starvation

Q: “Endogenous Pin1 in cerebellar granule neurons (rat) (enzyme)” was tested. Which binding did it give?
A: The binding was “binds”.

Reference: patent publication US20070282017A1 (Harvard, published 2007)
